Data taken from ChEMBL document CHEMBL3988442, “University of Dundee, Small-Polar-MMV Screening Library” (2021).

Protein sequences, listed by entry. Tags and fused reporters are not part of them. Residues count along the entry.
UniProt Q8IDJ8, 1-583: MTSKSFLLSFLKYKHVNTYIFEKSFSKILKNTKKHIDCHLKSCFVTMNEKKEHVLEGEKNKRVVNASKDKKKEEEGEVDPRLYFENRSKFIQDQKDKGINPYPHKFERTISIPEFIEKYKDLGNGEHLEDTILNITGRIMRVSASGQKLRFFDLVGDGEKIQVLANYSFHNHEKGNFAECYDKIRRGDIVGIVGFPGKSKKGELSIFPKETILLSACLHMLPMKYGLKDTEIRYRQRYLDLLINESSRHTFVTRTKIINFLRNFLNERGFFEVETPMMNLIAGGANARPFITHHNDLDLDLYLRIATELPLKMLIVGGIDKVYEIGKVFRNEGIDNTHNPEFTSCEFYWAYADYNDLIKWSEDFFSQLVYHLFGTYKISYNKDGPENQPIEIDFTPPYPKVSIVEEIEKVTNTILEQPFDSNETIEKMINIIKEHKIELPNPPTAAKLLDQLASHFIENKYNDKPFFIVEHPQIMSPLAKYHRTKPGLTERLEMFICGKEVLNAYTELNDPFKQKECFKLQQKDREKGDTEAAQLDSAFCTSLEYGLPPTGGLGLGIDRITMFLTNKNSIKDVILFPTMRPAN
UniProt P9WFT3, whole entry: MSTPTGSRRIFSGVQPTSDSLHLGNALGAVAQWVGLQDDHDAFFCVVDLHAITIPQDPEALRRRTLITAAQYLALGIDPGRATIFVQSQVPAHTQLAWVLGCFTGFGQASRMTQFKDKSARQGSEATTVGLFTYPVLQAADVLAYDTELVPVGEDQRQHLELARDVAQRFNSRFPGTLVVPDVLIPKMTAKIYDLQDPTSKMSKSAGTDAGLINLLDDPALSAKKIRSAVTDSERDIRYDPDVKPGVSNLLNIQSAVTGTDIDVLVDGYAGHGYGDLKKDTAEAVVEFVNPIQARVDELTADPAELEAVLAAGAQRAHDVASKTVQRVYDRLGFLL

A: 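Enzyme assay of the cytosolic lysyl-tRNA synthetase in 384-well plates, read by luminescence. Target: Lysine-tRNA ligase, Plasmodium falciparum 3D7 (UniProt Q8IDJ8). Concentration: 30 µM. Direction is inferred from only a few compounds that gave an IC50; most scored high, so higher reads as stronger inhibition. About 69,000 compounds were tested under these conditions; 0.071% (about 49) showed 50% or more at least once.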
B: 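Enzyme assay of tryptophanyl-tRNA synthetase; the read-out is not stated. Target: Tryptophan-tRNA ligase, Mycobacterium tuberculosis (UniProt P9WFT3). Compounds at 10 µM. Direction is not recorded; retested compounds ran higher, which suggests that high means inhibition. Of about 65,000 compounds tested this way, about 64 (0.098%) reached 50% or more in at least one test.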

Values are the deposited “Percent Effect”, in %.
How 0% and 100% were set is not recorded. Most values in the screen are low, and negative values occur.
Compounds were drawn at random from those tested, without regard to their results.
A dash means the value is not listed here; it may have been measured.

SMILES,A,B
CN(C)c1cc2c(nn1)CCN(C(=O)c1cc3c(s1)CCC3)C2,-1.588%,-2.658%
Cc1nccn1-c1cc(CNC(=O)c2ccccn2)ccn1,3.072%,-3.493%
CC(NC(=O)NCc1ccoc1)c1ccc2c(c1)CCC(=O)N2 (stereo not shown),0.2898%,2.158%
CCOCC1CCCN(C(=O)NCc2cn3c(C)cccc3n2)C1 (stereo not shown),6.651%,-1.242%
Cc1nn(CCNC(C)Cn2cncn2)c(C)c1Cl (stereo not shown),4.351%,-6.703%
CC(C)NC(=O)C1CCC2(CCN(Cc3cnn(C)c3)CC2)CO1 (stereo not shown),0.1369%,3.066%
Cc1n[nH]c(C2CN(C(=O)c3ccc(=O)n(C)c3)CCO2)n1 (stereo not shown),-0.7351%,9.391%
CCc1nc(Cn2c(=O)n(CC)c3ccccc32)no1,0.4131%,-1.079%
CC(C)Nc1nc2c(s1)C(=O)CN(CC1CC1)C2,0.5054%,-
Cc1cc(NC(=O)C(C)Nc2cccc(COCc3ccco3)c2)no1 (stereo not shown),6.506%,-1.708%
OC1(CNCCc2csc(-c3cccnc3)n2)CCNC1 (stereo not shown),8.501%,1.852%
CC(=O)N1C[C@H](NS(=O)(=O)c2cccc(Cl)c2)[C@@H](C(C)C)C1,1.212%,2.039%
CCN(C)C[C@@H]1CN(Cc2cccc(O)c2)C[C@@H]1CO,2.506%,-4.342%
Fc1cnc(N2CCCC3(COCCN(c4nccs4)C3)C2)nc1 (stereo not shown),5.819%,-0.1744%
CCc1nnc(SC2CCN(c3ccccc3F)C2=O)n1C (stereo not shown),-0.8863%,2.725%
CC(Cn1ccnc1)NC(=O)N1CCN(Cc2cccnc2)CC1 (stereo not shown),1.37%,1.887%
COCC(=O)NCc1cc(=O)n2c(n1)CN(Cc1ccncc1)CCC2,2.49%,-
COCc1nc(C(=O)N2CCCC2c2cccc(C)c2)cs1 (stereo not shown),1.352%,-4.089%
CC(=O)N1CCCC(c2ccnc(Nc3cnccn3)c2)C1 (stereo not shown),1.373%,-6.201%
COc1nccnc1N1CCC(C(=O)O)(n2ccc(C(C)(C)C)n2)CC1,5.467%,5.474%
Cn1cc(CN(Cc2ccccn2)Cc2ccccc2Cl)cn1,-0.9041%,2.748%
O=C(CCc1ccccn1)N1CCSC2(CCCCC2)C1,4.686%,4.615%
Cc1ccc(-c2cccc(N3CCC(NC4CCOCC4)CC3)c2)cc1,1.599%,0.2937%
COCCC(=O)N1CCC(c2cc3ncc(C)nc3[nH]2)CC1,1.443%,-3.137%
Cc1c(CN2CC[C@@H](N3CCC(O)CC3)[C@H](O)C2)[nH]c2ccc(Cl)cc12,0.4576%,1.877%
O=C1CNc2ncnc(Nc3cccc(Cn4cccn4)c3)c2N1,-3.272%,0.5825%
CCN(CC)S(=O)(=O)c1csc(C(=O)N2CCC(C(N)=O)CC2)c1,2.428%,-0.09311%
Cc1cc(-c2cnc(N3CCCC3)nc2-c2ccc(C)s2)on1,3.889%,-
Cc1cc(CN2CCOC(CN(C)C)C2)no1 (stereo not shown),-2.541%,-1.458%
COc1cccc(CCNC(=O)c2ccc(=O)n(C)c2)c1,-2.138%,1.598%
CC(C)OCCCN(Cc1ccncc1)Cc1cc(F)ccc1F,3.986%,-0.7536%
Oc1ncccc1-c1nc(-c2cccc(CN3CCOCC3)c2)no1,2.425%,0.5961%
Cc1cc2ccncc2n1CC1(O)CCN(C(=O)c2ccncc2)CC1,1.479%,-4.722%
Cc1cc(NCc2cccnc2)n2nc(C)cc2n1,6.475%,2.757%
O=C(NCC1CC1)[C@H]1C[C@@H]2CN(C(=O)NCC3CCCCC3)C[C@H]1O2,8.365%,6.365%
CCc1nc(CN2CCCC(N(C)CCc3cccs3)C2)no1 (stereo not shown),-1.57%,-4.549%
Cc1ccc2c(c1)SCC(=O)N2CC(=O)N1CCCC1c1nccs1 (stereo not shown),-3.013%,5.436%
O=C(COc1cccc2c1CCC2=O)NCCOc1ccccc1,-10.88%,12.61%
COc1cc(N2CCC3(CCCN3Cc3cnn(C)c3)CC2)ncn1,1.951%,-3.456%
O=C(Cc1ccccc1O)Nc1ccc(N2CCCC2)nc1,-1.065%,3.604%
COCCCS(=O)(=O)N(Cc1cccc(C)c1)Cc1ccccn1,-5.272%,6.144%
CC1CN(C)CCN1C(=O)c1ccn(-c2cccc(Cl)c2)n1 (stereo not shown),5.553%,-0.7194%
CCOc1cccc(CNc2ccccc2Cl)c1O,0.02425%,-2.311%
O=C(NCCNc1ccccn1)NC1CCOC2(CCCCC2)C1 (stereo not shown),7.344%,-1.168%
O=C1NCC(C(=O)Nc2ncc(Cc3ccc(F)cc3F)s2)N1 (stereo not shown),1.35%,3.549%
CC(C)Oc1cccc(CNC(Cc2ccsc2)c2nccs2)c1 (stereo not shown),-0.3966%,3.357%
CCc1noc(CN(CC)Cc2cc3cc(C)ccc3[nH]c2=O)n1,2.796%,0.9662%
CCCNS(=O)(=O)c1cc2c3c(c1)c(C)cc(=O)n3CCC2,0.1992%,-8.846%
C[C@@H](N)C(=O)N1CCC(c2[nH]ncc2-c2ccccc2)CC1,0.6878%,3.482%
C=C(C)COc1ccccc1C(=O)N1CCC(C(=O)NCC)C1 (stereo not shown),4.075%,-1.879%
Cc1cc2nc(C(C)C)cc(N3CCC(Oc4ncccn4)CC3)n2n1,2.643%,-1.555%
CCC(C(=O)N(C)C)N1CCC(c2nccn2Cc2cscn2)CC1 (stereo not shown),0.6496%,-0.6522%
COc1ccc(CNCCc2ccn(-c3ccccc3)n2)cc1O,2.466%,-2.668%
COCCCNC(=O)CN(C)C(=O)c1cc(Cl)ccc1O,0.01962%,-1.355%
Cc1ccc(CN(Cc2ccncc2)C2CC(C)(C)NC(C)(C)C2)o1,5.336%,-
CCc1nnc(CN(C)c2nc(C(C)C)nc3c2cnn3C)o1,5.124%,-7.014%
Cc1ccc([C@]2(O)CC[C@H]3CN(Cc4cccnc4)C[C@H]32)nc1,2.99%,-
Cc1cccc(CN2CC[C@H]3O[C@H](C(=O)Nc4cnccn4)CC[C@H]32)n1,-0.9064%,0.4122%
CN1CCN(c2ccccc2NC(=O)NCCc2ccccc2)CC1,6.159%,-1.016%
CC(=O)c1ccc(S(=O)(=O)NCc2cccnc2N(C)C)cc1,0.5525%,-6.304%
CCC(=O)N1CCCC(Cn2cc(-c3ccc(F)cc3)nn2)C1 (stereo not shown),-0.9596%,-1.317%
O=C(c1c2c(N3CCOCC3)ncnc2n2ccccc12)N1CCCC1,4.723%,1.803%
CCc1nc(CN2CCCC(N(C)Cc3cnc(C)cn3)C2)no1 (stereo not shown),4.134%,-1.028%
Cc1cc(C)n(-c2cncc(NCCNC(=O)c3cccnc3)n2)n1,4.526%,2.68%
O=c1oc(-c2ccc(F)cc2)nn1CCS(=O)(=O)c1ccccc1,1.61%,-0.7048%

5 of the entries, repeated:

SMILES,A,B
Cc1nn(CCNC(C)Cn2cncn2)c(C)c1Cl (stereo not shown),4.351%,-6.703%
CC(=O)N1C[C@H](NS(=O)(=O)c2cccc(Cl)c2)[C@@H](C(C)C)C1,1.212%,2.039%
COCC(=O)NCc1cc(=O)n2c(n1)CN(Cc1ccncc1)CCC2,2.49%,-
Cc1cc(-c2cnc(N3CCCC3)nc2-c2ccc(C)s2)on1,3.889%,-
CC(=O)N1CCCC(c2ccnc(Nc3cnccn3)c2)C1 (stereo not shown),1.373%,-6.201%